Reference: patent US20210115087A1, “CYCLIC PEPTIDE INHIBITORS OF HEDGEHOG PROTEINS” (University of Rochester, priority 2016, published 2021)
These are yes or no findings as the source states them, for the method shown. Some entries that bind do so weakly or less than the wild type.

Amino acid sequences for entries named in this document (tags omitted). Residues count along the entry.
UniProt Q14623, residues 28-202: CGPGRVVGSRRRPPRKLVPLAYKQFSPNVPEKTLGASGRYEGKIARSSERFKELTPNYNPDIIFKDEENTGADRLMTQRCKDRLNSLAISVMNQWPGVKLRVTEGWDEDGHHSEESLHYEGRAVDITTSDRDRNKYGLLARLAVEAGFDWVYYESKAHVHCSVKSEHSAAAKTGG
UniProt Q15465, residues 24-197: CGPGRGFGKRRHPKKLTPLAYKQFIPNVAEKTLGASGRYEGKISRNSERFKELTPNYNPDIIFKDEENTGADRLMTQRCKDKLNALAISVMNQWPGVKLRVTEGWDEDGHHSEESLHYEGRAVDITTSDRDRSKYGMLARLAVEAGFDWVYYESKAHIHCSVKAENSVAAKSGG

What was measured:
[1] = molecular target: GST-Dhh (recombinant GST-fused human Desert Hedgehog) (human) (UniProt O43323); assay: direct binding ELISA: immobilized GST-Dhh, biotinylated peptide at a fixed concentration, HRP-conjugated streptavidin; response normalized to the highest of the three Hh proteins
[2] = molecular target: GST-Ihh (recombinant GST-fused human Indian Hedgehog) (human) (UniProt Q14623); assay: direct binding to immobilized GST-Hh proteins at a fixed peptide concentration (FIG. 14; biotinylated peptides and HRP-streptavidin by the legend)
[3] = molecular target: GST-Dhh (recombinant GST-fused human Desert Hedgehog) (human) (UniProt O43323); assay: as above
[4] = molecular target: GST-Shh (recombinant GST-fused human Sonic Hedgehog) (human) (UniProt Q15465); assay: as above
[5] = molecular target: GST-Shh (recombinant GST-fused human Sonic Hedgehog) (human) (UniProt Q15465); assay: direct binding ELISA: immobilized GST-Shh, biotinylated peptide at a fixed concentration, HRP-conjugated streptavidin; response normalized to the highest of the three Hh proteins
[6] = molecular target: GST-Ihh (recombinant GST-fused human Indian Hedgehog) (human) (UniProt Q14623); assay: direct binding ELISA: immobilized GST-Ihh, biotinylated peptide at a fixed concentration, HRP-conjugated streptavidin; response normalized to the highest of the three Hh proteins

Measured: binding

TLDDMEEMDGLSD (biotinylated (site and spacer not stated)) [Biot-HL2-pep]
binds: [1] | [2] | [3] | [4] | [5] | [6]
